Here are results for two molecules from patent US8153376.

The chains behind the UniProt entries cited, without tags or fusion partners. Residues count along the entry.
UniProt P19022, residues 160-906: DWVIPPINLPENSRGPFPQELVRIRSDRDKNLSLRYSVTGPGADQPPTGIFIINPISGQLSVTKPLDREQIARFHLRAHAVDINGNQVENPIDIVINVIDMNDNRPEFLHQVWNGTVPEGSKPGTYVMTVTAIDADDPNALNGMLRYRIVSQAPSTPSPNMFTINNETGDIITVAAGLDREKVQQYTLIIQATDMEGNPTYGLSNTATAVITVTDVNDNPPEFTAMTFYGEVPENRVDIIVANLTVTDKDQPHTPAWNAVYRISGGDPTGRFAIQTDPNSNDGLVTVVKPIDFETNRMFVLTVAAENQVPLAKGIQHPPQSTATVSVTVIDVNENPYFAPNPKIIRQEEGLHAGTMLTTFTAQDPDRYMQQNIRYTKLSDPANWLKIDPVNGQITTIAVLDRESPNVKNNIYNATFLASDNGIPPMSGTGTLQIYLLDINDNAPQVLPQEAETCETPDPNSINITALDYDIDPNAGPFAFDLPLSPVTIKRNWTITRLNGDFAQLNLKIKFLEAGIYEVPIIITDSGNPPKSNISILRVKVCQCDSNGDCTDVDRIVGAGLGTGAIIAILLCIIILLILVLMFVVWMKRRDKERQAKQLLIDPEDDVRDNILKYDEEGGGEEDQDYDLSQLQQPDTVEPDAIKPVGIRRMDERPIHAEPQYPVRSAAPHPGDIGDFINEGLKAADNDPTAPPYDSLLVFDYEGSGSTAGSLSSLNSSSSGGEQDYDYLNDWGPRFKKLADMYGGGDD
UniProt Q9Z1Y3, residues 160-906: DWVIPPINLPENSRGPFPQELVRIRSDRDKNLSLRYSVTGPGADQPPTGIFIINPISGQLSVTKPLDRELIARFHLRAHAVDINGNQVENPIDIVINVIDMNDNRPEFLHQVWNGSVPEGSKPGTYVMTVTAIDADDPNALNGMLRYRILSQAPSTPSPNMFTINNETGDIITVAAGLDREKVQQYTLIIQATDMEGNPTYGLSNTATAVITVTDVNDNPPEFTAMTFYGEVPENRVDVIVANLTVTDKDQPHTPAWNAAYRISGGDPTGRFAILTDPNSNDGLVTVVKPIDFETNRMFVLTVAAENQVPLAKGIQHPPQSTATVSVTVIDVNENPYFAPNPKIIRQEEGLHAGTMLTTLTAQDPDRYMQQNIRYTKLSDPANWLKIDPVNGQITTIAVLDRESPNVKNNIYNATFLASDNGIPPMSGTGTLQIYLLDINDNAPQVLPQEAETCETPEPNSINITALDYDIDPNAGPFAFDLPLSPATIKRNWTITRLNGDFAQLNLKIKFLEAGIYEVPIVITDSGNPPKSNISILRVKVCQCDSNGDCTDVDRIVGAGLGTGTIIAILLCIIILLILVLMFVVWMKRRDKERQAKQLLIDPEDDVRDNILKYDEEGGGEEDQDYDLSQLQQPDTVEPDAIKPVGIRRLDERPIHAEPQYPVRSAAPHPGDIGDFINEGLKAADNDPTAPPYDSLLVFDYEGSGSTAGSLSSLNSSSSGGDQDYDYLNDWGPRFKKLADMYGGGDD

These are yes or no findings as the source states them, for the method shown. For some of these results: In cells and extracts the contact can be indirect. Some binding calls cover weakened binding; strength is not graded here.

For assay [1], the target named is cadherin, human, in myocardial tissue sections (human) (UniProt P19022). The experiment in a line: double immunofluorescence and confocal microscopy of human myocardium (co-localisation at the intercalated disc).
In assay [2] the target is N-cadherin, rat, endogenous in neonatal rat cardiac myocytes (rat) (UniProt Q9Z1Y3). Description: co-immunoprecipitation, summary sentence of Example 1.
Assay [3] has the same target. Description: co-immunoprecipitation (IP LIMP-2, immunoblot cadherin), FIG. 7a.
The target is the same in assay [4]. Description: co-immunoprecipitation from neonatal rat cardiac myocyte protein (IP anti-LIMP-2, blot cadherin).

B1: LIMP-2, human, in myocardial tissue sections (protein, UniProt Q14108 1-478, looked up)
chain: MGRCCFYTAGTLSLLLLVTSVTLLVARVFQKAVDQSIEKKIVLRNGTEAFDSWEKPPLPVYTQFYFFNVTNPEEILRGETPRVEEVGPYTYRELRNKANIQFGDNGTTISAVSNKAYVFERDQSVGDPKIDLIRTLNIPVLTVIEWSQVHFLREIIEAMLKAYQQKLFVTHTVDELLWGYKDEILSLIHVFRPDISPYFGLFYEKNGTNDGDYVFLTGEDSYLNFTKIVEWNGKTSLDWWITDKCNMINGTDGDSFHPLITKDEVLYVFPSDFCRSVYITFSDYESVQGLPAFRYKVPAEILANTSDNAGFCIPEGNCLGSGVLNVSICKNGAPIIMSFPHFYQADERFVSAIEGMHPNQEDHETFVDINPLTGIILKAAKRFQINIYVKKLDDFVETGDIRTMVFPVMYLNESVHIDKETASRLKSMINTTLIITNIPYIIMALGVFFGLVFTWLACKGQGSMDEGTADERAPLIRT
As to B1, in assay [1], the binding entry is on record as “binds”.

B2: lysosomal integral membrane protein-2 (LIMP-2), rat, endogenous in neonatal rat cardiac myocytes (protein, UniProt P27615 2-478, looked up)
chain: ARCCFYTAGTLSLLLLVTSVTLLVARVFQKAVDQTIEKNMVLQNGTKVFDSWEKPPLPVYIQFYFFNVTNPEEILQGEIPLLEEVGPYTYRELRNKANVQFGENGTTISAVTNKAYIFERNQSVGDPTVDLIRTINIPLLTVVEMAQQPFLREIIEAMLKAYQQTLFVTHTVHELLWGYKDEVLSLVHIFRPDVSPNFGLFYERNGTNDGEYVFLTGEDNYLNFTKIVEWNGKTSLDWWTTDTCNMINGTDGDSFHPLISKDETLYIFPSDFCRSVYITFSSFENVEGLPAFRYKVPAEILANSSENAGFCIPEGNCMDAGVLNVSICKNGAPIIMSFPHFYQADEKFVSAIKGMRPNKEEHESFVDINPLTGIILRGAKRFQINTYVKKLDDFVETGNIRTMVFPVMYLNESVLIDKETASQLKSVINTTLIVTNIPYIIMALGVFFGLIFTWLACRGQGSTDEGTADERAPLIRT
Take B2: the binding result in assay [2], in assay [3] and in assay [4] was “binds” in each case.
